## Screening data, single-dose tests

The values are deposited in ChEMBL (CHEMBL3988442, “University of Dundee, Small-Polar-MMV Screening Library” (2021)).

Mtb cholesterol medium: 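Phenotypic screen: M. tuberculosis growth, cholesterol and DPPC medium, 4 days; the read-out is not stated. Compounds at 50 µM. The record gives no direction; compounds that gave an IC50 in retests scored well above the rest, so higher reads as more growth inhibition. About 69,000 compounds were tested under these conditions; 0.54% (about 370) showed 50% or more at least once.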
Mtb glucose medium: 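Whole-cell growth test on Mycobacterium tuberculosis, read after 3 days in glucose-containing 7H9 medium; the read-out is not stated. Compounds at 50 µM. Direction is inferred from retests: higher values go with more growth inhibition. Size under these conditions: about 69,000 compounds, about 760 of them at 50% or above in at least one test.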

Values are the deposited “Percent Effect”, in %. How 0% and 100% were set is not recorded. Most values in the screen are low, and negative values occur. This is an unselected part of the compounds tested. Two or more numbers in one place are separate tests of the same structure; such repeats can differ widely. A dash means the value is not listed here; it may have been measured.

compound | Mtb cholesterol medium | Mtb glucose medium
CCC(O)CN1CCN(C(=O)Cc2cc(Cl)ccc2OC)CC1 (stereo not shown) | 13.79 | 6.526
CCCOc1ccc(C(=O)N[C@@H]2CCNC[C@H]2O)cc1Cl | 4.377 | 0.1008
[H][C@]12CCCC(=O)N[C@@]1(C)CCCCN2C(=O)CCn1nccc1C | -4.943 | 2.929
Cc1ccc2cnn(CCC(=O)Nc3nc(C)c(C)s3)c2c1 | 3.084 | 17.39
CC(C)N(Cc1cnn(C)c1)C(=O)c1ccnc(N(C)C)c1 | 25.98 | 6.188
Cc1cc(CC(C)NC(=O)Cc2cc(F)ccc2C)[nH]n1 (stereo not shown) | -11.23 | -10.01 and -0.807
COC(=O)Cn1c(=O)nc2n1C(=O)N(c1ccc(Cl)cc1)C2 | -33.8 | -39.89
[H][C@@]12CS(=O)(=O)C[C@]1([H])N(Cc1nc3c(s1)CCCC3)CCN2CC(C)C | -0.9582 | -0.3633
Cn1cc(S(=O)(=O)N(CC(F)(F)F)C2CC2)cc1C(N)=O | -1.049 | -1.29
Cn1nc(CNC(=O)C2COc3ccccc3O2)cc1C1CC1 (stereo not shown) | -1.399 | 5.527
CNc1nc(C(=O)N2CCCCC2c2ccc(CN(C)C)cc2)cs1 (stereo not shown) | 2.093 | -10.21
Cc1cccc(OC2(C(=O)O)CCN(C(=O)CCc3ccco3)CC2)c1 | -4.251 | 17.45
CC(CNC(=O)c1ccn(-c2ccc(F)cc2)n1)Cn1cccn1 (stereo not shown) | -7.345 | 13.78
CN(C)C(=O)CNC(=O)Nc1cccc(Cl)c1SC(F)F | 7.454 | -8.071 and -5.778
Nc1cc2c(nn1)CCN(C(=O)c1csc(-c3ccco3)n1)C2 | 1.267 | -9.012
CC(C)COCC(NC(=O)c1cccnc1)c1ccco1 (stereo not shown) | -17.53 | 9.503
CCN(CC1CCOC1)C(=O)Nc1ccc(-n2cncn2)nc1 (stereo not shown) | 19.38 | 1.541
O=c1c(C(F)(F)F)cccn1Cc1nnc(-c2cccnc2)o1 | -20.2 | 2.125
CCc1nc(C2CCCN(c3ncc(Br)cn3)C2)no1 (stereo not shown) | -0.3777 | -4.077
COCCNC(=O)c1nnc2ccc(N3CCOCC3)cc2n1 | -30.31 | -44.6
COCC1COCCC12CCN(Cc1nccs1)CC2.O=C(O)C(F)(F)F (stereo not shown) | 3.904 | 3.29
CCOc1nnc(CN2CCN(CCOC)CC2)s1 | -8.32 and -17.38 | -2.09
CCOCc1ccccc1NC(=O)NC1CCN(CC(F)(F)F)C1 (stereo not shown) | 8.472 | 13.75
CNC(=O)c1ccc(-c2ccccc2)n1C | -2.797 | -12.05
CC(=O)c1cccc(NC(=O)Cn2nc(-c3cccs3)oc2=O)c1 | -2.581 | -11.58
O=C(CSC1CCc2ccccc2NC1=O)Nc1ccc(CCO)cc1 (stereo not shown) | -23.21 | -26.57
CCOC(=O)CCNC(=O)c1nc(OCC)ccc1Cl | 1.329 | -6.203
CSCc1cc(F)ccc1CNCc1ncc[nH]1 | 1.215 | -4.143
CCCN1CCCC1c1nc(Cc2ccc(F)cc2)no1 (stereo not shown) | 7.069 | 7.94 and -1.588
CCc1ccc(C(=O)N2CC[C@](C)(O)[C@H](C)C2)[nH]1 | 0.2916 | -0.3442 and -2.392
CCn1ncnc1CN1CCc2[nH]cnc2C1c1ccccn1 (stereo not shown) | -11.47 | -4.601
CSc1nccc(N2CCN(C)C3(CCC(=O)N(CC4CC4)CC3)C2)n1 (stereo not shown) | 2.87 and -5.403 | -2.678
FC(F)(F)C1CCCn2c(CNCc3ccsc3)nnc21 (stereo not shown) | -24.51 | -9.695
Cc1ccoc1C(=O)N(CCN(C)C)Cc1ccccn1 | -23.37 | 11.12
Cc1ccc(Oc2cc(CN)ccn2)cc1C.Cl | 12.81 | 11.92
O=c1c2ccccc2nc2n1C(CSc1ccc(Cl)cc1Cl)CN2 (stereo not shown) | -11.62 | -15.06
CCCNC(=O)c1ccc(NC(=O)c2cccc(OCC)c2)cc1 | 8.291 | 50.51
COCCN(C)C(C)c1cccc(S(N)(=O)=O)c1 (stereo not shown) | -0.3348 | -17.9
Cn1cc(-c2ncc3c(c2C(=O)O)CCN(CC2CC2)C3)cn1.O=C(O)C(F)(F)F.O=C(O)C(F)(F)F | -37.86 | -3.967
CC(C(=O)N1CCN(Cc2ccncc2)CC1)n1cncn1 (stereo not shown) | -20.46 | -8.623
Cc1nccn1CCC1CCCCN1C(=O)c1ccc(N(C)C)cc1 (stereo not shown) | -14.6 and 8.259 | -7.907
CCn1cc(NC(=O)C2CCN(Cc3nc(C(C)C)no3)CC2)cn1 | 19.96 | 2.786
COc1cc(C(=O)N(C)Cc2nccn2CC(F)(F)F)ccc1C | -18.61 | 19.29
N#CCCN(CC1CC1)Cn1cc(Cl)cn1 | -17.53 | 4.998
[H][C@]12CCCCN1CCC[C@H]2CCC(=O)NCCc1n[nH]c(=O)n1C | -1.915 | 7.32
Cc1ccc(CC(=O)N2CCc3nnc(N(C)C)cc3C2)cn1 | -14.86 | -18.08
CC(C)(C)NC(=O)COc1ccc(Oc2ccccn2)cc1 | 9.325 and 12.8 | -2.288
[H][C@@]12CCCO[C@]1([H])[C@H](N1CCCC1=O)CN2Cc1cnn(C)c1 | 5.343 | -7.889 and -7.633
Cn1nccc1-c1ccc2nc(C3CCN(CCO)CC3)nn2c1.O=C(O)C(F)(F)F | 13.06 | 17.45
CC(C)N(C)Cc1cncc2c1CCN(CC(=O)N(C)C)C2.Cl.Cl.Cl | -9.832 | -2.512
CS(=O)(=O)CCN1CCCC1c1noc(C2CC2)n1 (stereo not shown) | -14.83 | -13.76
Cn1cncc1-c1nnc([C@H]2CCN(C3CCOCC3)C2)o1 | 8.113 | 1.917 and 12.23
CC(Nc1ccc(N2C(=O)CCCC2=O)cc1)c1ccc(C#N)cc1 (stereo not shown) | -13.85 | 4.151
CSc1ccc(-c2nc(CN3CCNCC3C)c(C)o2)cc1 (stereo not shown) | -10.18 | 19.32
CCn1c(CN(C)C)nnc1C1CCN(c2nccc(NC)n2)CC1 | -12.48 and -11.81 | -11.13 and 1.03
CCn1nnnc1-c1cccc(NC(=O)CCOC(C)C)c1 | -13.15 | -5.332
Cc1nc[nH]c1-c1nccn1-c1cccc(CN2CCCC2)c1 | - | -34.32
O=C(CCCn1cncn1)NC1CCc2nccn2C1 (stereo not shown) | -8.586 | -15.05

Repeated from the top, 4 entries:

CCC(O)CN1CCN(C(=O)Cc2cc(Cl)ccc2OC)CC1 (stereo not shown) gave Mtb cholesterol medium: 13.79%; Mtb glucose medium: 6.526%.
CCCOc1ccc(C(=O)N[C@@H]2CCNC[C@H]2O)cc1Cl gave Mtb cholesterol medium: 4.377%; Mtb glucose medium: 0.1008%.
[H][C@]12CCCC(=O)N[C@@]1(C)CCCCN2C(=O)CCn1nccc1C gave Mtb cholesterol medium: -4.943%; Mtb glucose medium: 2.929%.
Cc1ccc2cnn(CCC(=O)Nc3nc(C)c(C)s3)c2c1 gave Mtb cholesterol medium: 3.084%; Mtb glucose medium: 17.39%.